# Measurements taken from the supplement of paper PMC3334620.
# In all, about 33,000 sequences were measured (“E-score (-0.5 to 0.5)”: median about -0.0034, highest 2% from about 0.25 on). Some of the results follow.
# Target: T1, Yap3 (UniProt P38749)
# T1 sequence: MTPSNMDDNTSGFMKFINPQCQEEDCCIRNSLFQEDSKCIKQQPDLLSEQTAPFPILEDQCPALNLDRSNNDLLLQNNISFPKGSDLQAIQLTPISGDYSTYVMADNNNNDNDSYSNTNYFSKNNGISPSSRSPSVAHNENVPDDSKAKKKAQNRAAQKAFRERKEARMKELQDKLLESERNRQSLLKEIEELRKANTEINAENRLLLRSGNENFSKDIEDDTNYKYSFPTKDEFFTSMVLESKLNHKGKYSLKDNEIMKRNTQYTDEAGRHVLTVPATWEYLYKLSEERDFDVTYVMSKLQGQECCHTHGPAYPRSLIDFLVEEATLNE
# Experiment: PBM E-score (8-mer binding enrichment) (E-score (-0.5 to 0.5)); higher = stronger / more preferred TF binding
# Settings: protein concentration: 100 nM; construct: GST-full length
# Procedure: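 Universal 'all 10-mer' protein binding microarrays (Agilent AMADID 015681) probed with GST-tagged S. cerevisiae TFs (full-length or DBD) made by in vitro transcription/translation (PURExpress), about 100-200 nM. Bound TF was detected with fluorescent anti-GST. Each ungapped 8-mer (which stands for itself and its reverse complement) is scored by the PBM enrichment score (E-score), a modified Wilcoxon-Mann-Whitney statistic from -0.5 to +0.5, computed with the Universal PBM Analysis Suite. Scale: above 0.35 generally sequence-specific binding.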
row,Sequence,PBM E-score
1,CGCTAGCA,-0.121
2,AACACTAA,0.117
3,GGAAATGA,0.253
4,GATAAGGA,0.0659
5,AACAACTG,0.0942
6,CCATCTAA,-0.0259
7,GGAATCAC,0.112
8,AGAGCACG,-0.187
9,GCACGAAC,0.224
10,TGGCTGAA,0.0481
11,AGGCCGAG,-0.0483
12,CAGATCGA,0.0118
13,ATGTCGGG,0.00306
14,ACATCGGA,0.0174
15,GTCATGCA,-0.0295
16,CCCCCACG,-0.267
17,ATCTCTAC,0.179
18,CACTGCCG,-0.087
19,GACTTTAA,-0.0279
20,AGCCTGTG,-0.177
21,CCATGCGG,-0.161
22,CTATAACC,-0.0722
23,AGTTATTA,0.184
24,AAATTAAG,0.135
25,CAGTGCTA,0.0429

row,Sequence,PBM E-score
1,CTTCCTGC,-0.182
2,ACGGGTCT,-0.283
3,AGGATTTC,0.0473
4,ATGGAACC,0.0312
5,ACTGCGCC,-0.253
6,AAGTAGCA,0.135
7,CCTGTCAG,-0.104
8,GTCCGTTA,0.107
9,ACCTTGTG,-0.129
10,ATAACAAA,0.209
11,AGACAGGG,-0.198
12,ACAACTTA,0.0982
13,CAGTCACC,-0.166
14,GAAGGGCA,-0.108
15,AAAATACA,0.197
16,CGAATAGC,0.0595
17,CTAGGTCA,-0.136
18,ATCGCTGG,-0.223
19,ACGGCCCA,-0.194
20,ATTGGGCA,-0.0331
21,AGTTTCCG,0.0445
22,CAGTCTAG,-0.222
23,GTTCAACA,0.027
24,AAACACCA,0.0628
25,TGAATCAA,0.0222

row,Sequence,PBM E-score
1,ATCATCTC,0.0253
2,ACGTAGAA,0.095
3,CACTGCAA,0.0163
4,ACGTCGCT,-0.104
5,CCATAAGG,-0.0652
6,AATCGGCG,-0.043
7,TAAGGTCA,0.00376
8,CGCCCGGA,-0.108
9,GGTTCCAC,-0.18
10,GCCCCAGC,-0.148
11,AAGTTCCC,-0.0616
12,GTATAGGA,0.0758
13,GCGAAGGA,-0.201
14,AGGACTTG,-0.316
15,ACTGACGC,-0.0683
16,GAGAACAA,0.311
17,AAAGTCTA,-0.107
18,ATTCCACA,0.148
19,CCCATCAA,0.132
20,TGCTGCCA,-0.181
21,CACCTTCC,0.0339
22,AGCTTTAT,-0.00438
23,ATTTCCAA,-0.154
24,AAATAGCA,0.0385
25,GACATTGA,0.145

row,Sequence,PBM E-score
1,CCATCCAG,-0.0947
2,CTCGCGGA,-0.0195
3,GGATCCTA,-0.11
4,ACTGCTAA,-0.0939
5,ATAGTGCA,0.187
6,AGCTCACA,-0.0422
7,CACTAGAC,0.082
8,CGTCTGGA,-0.366
9,ACGAGCGT,-0.135
10,AGATGGGG,-0.171
11,AACTTAGA,0.203
12,AGCCATGC,-0.0338
13,CGAGCGCC,-0.305
14,AGCTGAGG,-0.216
15,CGAGGACC,-0.159
16,CCGGTTCG,-0.145
17,ACACACAA,0.109
18,ACAAAGGT,0.0149
19,ACAAACGT,-0.0781
20,ACCCCTAA,-0.109
21,AGGCCCCA,-0.176
22,CCAACCGA,0.134
23,CTAACGAG,0.0196
24,CCTGAACG,-0.154
25,GATGCAGA,0.0588

row,Sequence,PBM E-score
1,CTGCCTTA,-0.139
2,ATCGGATA,0.214
3,CACATTGC,0.0928
4,CTCGCTCA,0.0266
5,GCATATAA,0.138
6,CTGAGCTC,0.0497
7,CCCTAAAG,-0.275
8,CGGGGAGA,-0.265
9,CACCCTAC,0.0675
10,CTGGCGCC,-0.104
11,CGTGATCC,-0.0468
12,TAAATCCA,0.2
13,GGTTTGAC,-0.126
14,CGTAGAAG,0.0882
15,ATACGTGG,0.0251
16,CTCCGCAG,-0.0033
17,CTTCATTC,0.0779
18,ATATCTGG,0.0384
19,ACTACGAC,-0.00422
20,CGTACCTA,-0.0347
21,CGCAAAAG,-0.107
22,TATTGCAA,0.183
23,CTTAGAGA,-0.0377
24,CTAGAGAA,0.0508
25,AGGGGAAT,0.0443

row,Sequence,PBM E-score
1,GGAAGCAC,0.0329
2,CATATCCC,0.0923
3,CGACTCAC,-0.092
4,ATGTAGCA,-0.00878
5,TAAAGTCA,0.137
6,TACCAGGA,0.116
7,AACCTCAG,-0.0261
8,AAGCAAGG,-0.128
9,GAGGATGC,-0.148
10,GATGCCCA,0.0612
11,CAAAAGAC,0.105
12,AGAATCGG,-0.0519
13,CAAGGCCC,-0.322
14,ACTATATG,0.193
15,TTAGTGAA,0.109
16,GGGGGCAC,-0.319
17,GATCTGGC,-0.0239
18,CAGAGCAC,-0.127
19,ATCCGATG,0.0814
20,ATCGGTGG,-0.165
21,ACTAAAGG,0.0113
22,ATTCACAA,0.294
23,CCCCTTCC,-0.277
24,CGCACGCG,-0.163
25,GAATGGGC,-0.1

row,Sequence,PBM E-score
1,GAGTTGAA,0.0341
2,AATAAATC,0.0738
3,CCTAATCC,0.0254
4,AAAAGGCG,-0.0868
5,GATAAGGC,-0.00849
6,AGTGAACT,0.0633
7,GTCCCCTA,-0.132
8,CATACGAA,0.142
9,CTTCCCGC,0.0313
10,AACTGGCT,-0.148
11,ACCCATCA,0.033
12,AGGGCCCA,-0.28
13,CGAAGGCC,-0.256
14,AGAGCGGG,-0.147
15,CGGTACGA,-0.0571
16,CCGATGCG,-0.207
17,GGCTTGGA,-0.166
18,GCGTATCC,-0.174
19,GTGCTTGA,0.0407
20,CGAACACG,0.0256
21,CCCACGCG,-0.158
22,CAAGTGTG,0.0428

# Retrieved one by one from the list above, 5 records:
row,Sequence,PBM E-score
2,AATAAATC,0.0738
22,CAAGTGTG,0.0428
8,CATACGAA,0.142
14,AGAGCGGG,-0.147
4,AAAAGGCG,-0.0868

# Rewritten with bars between the fields: entries from further up
row | Sequence | PBM E-score
24 | AAATAGCA | 0.0385
19 | ATCCGATG | 0.0814

# Three entries from above, tab-delimited.
row	Sequence	PBM E-score
10	AACTGGCT	-0.148
13	CGAAGGCC	-0.256
17	GGCTTGGA	-0.166
